Test results from the supplement of paper PMC11150407.
Hit rate of the full screen: of about 2,100 compounds, about 180 (8.6%) showed an effect of 50% or more. This is one part of the list.

test system: MOLM1 and UCSD/AML1 (averaged); assay: cell viability relative to DMSO control (POC); higher = less growth inhibition; settings: 1 µM; 72 h
Protocol: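 Primary viability screen in the 3q26 EVI1-high AML cell lines MOLM1 and UCSD/AML1 (1.5e3 cells/well, 384-well), compounds at 1 uM for 72 h. ATP CellTiter-Glo read-out given as percent of viable cells over DMSO control (POC), averaged over duplicates. DMSO was the negative control and 5 uM etoposide the positive control. This mapping covers the MicroSource Spectrum and Selleck anticancer libraries (drug names).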

Compound | cell viability [%]
N#Cc1c(Cl)c(Cl)c(Cl)c(C#N)c1Cl | 1.55
CC[N+]1(C)CCCC(OC(=O)C(O)(c2ccccc2)c2ccccc2)C1 (centres undefined) | 87.3
CC1=C2C(=CO[C@H](C)[C@H]2C)C(O)=C(C(=O)O)C1=O | 104
CC1C=CC=CCCC=CC=CC=CC=CC(OC2OC(C)C(O)C(N)C2O)CC2OC(O)(CC(O)C(O)CCC(O)CC(O)CC(O)CC(=O)OC(C)C(C)C1O)CC(O)C2C(=O)O (centres undefined) | 92.4
C[C@@H]1C[C@H](O)[C@@]2(O)[C@]13CC(=O)OC[C@@]2(C)[C@@](C)(O)C(=O)C3 | 92.3
CC(=O)O[C@H]1CC[C@@]2(C)[C@H](CC[C@@H]3[C@@H]2CC[C@]2(C)[C@@H](C4=CC(=O)OC4)[C@@H](OC(C)=O)C[C@]32O)C1 | 2.29
COc1cc2c(c(OC)c1OC)-c1ccc(OC)c(=O)cc1[C@@H](NC(C)=O)CC2 | 6.75
N#C[C@H](O[C@@H]1O[C@H](CO[C@@H]2O[C@H](CO)[C@@H](O)[C@H](O)[C@H]2O)[C@@H](O)[C@H](O)[C@H]1O)c1ccccc1 | 87.5
CC[C@@H](CO)NC(=O)[C@@H]1C=C2c3cccc4c3c(cn4C)C[C@H]2N(C)C1 | 103
CN1C[C@H](CNC(=O)OCc2ccccc2)C[C@@H]2c3cccc4c3c(cn4C)C[C@H]21 | 89.9
O=C(O)CC[N+](=O)[O-] [BOVINOCIDIN (3-nitropropionic acid)] | 94.6
Oc1ccc2c3c1O[C@H]1[C@@H](O)CC[C@@]4(O)[C@@H](C2)N(CC2CCC2)CC[C@]314 | 102
C/C=C/c1ccc2c(c1)OCO2 | 108
CN1CCc2cc3c(cc2[C@H]1[C@@H]1OC(=O)c2c1ccc1c2OCO1)OCO3 | 93.9
N[C@H](CO)Cc1ccccc1 | 92.1
CC(O)(CS(=O)(=O)c1ccc(F)cc1)C(=O)Nc1ccc(C#N)c(C(F)(F)F)c1 (centres undefined) [Bicalutamide (Casodex)] | 101
CCOC(=O)c1cncn1[C@H](C)c1ccccc1 | 79.6
O=c1cccc2n1C[C@@H]1CNC[C@H]2C1 | 95.5
NCC1(CC(=O)O)CCCCC1 | 94.2
C=CCc1ccc(OC)cc1 | 107
CC[C@@H](C)C(=O)O[C@H]1[C@H](O)[C@H]2[C@@H](CN3C[C@@H](C)CC[C@H]3[C@@]2(C)O)[C@@H]2C[C@]34O[C@]5(O)[C@@H](OC(=O)[C@@](C)(O)CC)CC[C@@]3(C)[C@@H]5[C@@H](OC(C)=O)[C@@H](OC(C)=O)[C@H]4[C@@]21O | 89.1
CC(N)C(O)c1ccccc1 (centres undefined) | 114
CC1(C)C(=O)[C@@H]2O[C@@H]2[C@@]2(C)C1C[C@@H](O)[C@]1(C)C2CC[C@@]2(C)[C@H](c3ccoc3)OC(=O)C3OC321 (stereo partly drawn) [1,2alpha-EPOXYDEACETOXYDIHYDROGEDUNIN] | 91.4
O=C(CCCN1CCC2(CC1)C(=O)NCN2c1ccccc1)c1ccc(F)cc1 | 103
O=[N+]([O-])O[C@H]1CO[C@H]2[C@@H]1OC[C@H]2O[N+](=O)[O-] | 116

Compound | cell viability [%]
CC(C)(O)[C@@H]1[C@H]2OC(=O)[C@@H]1[C@]1(O)C[C@H]3O[C@]34C(=O)O[C@H]2[C@]14C | 87.8
CC(C)(C#N)O[C@@H]1O[C@H](CO)[C@@H](O)[C@H](O)[C@H]1O | 109
CC(=O)O[C@H]1C(=O)[C@@]2(C)[C@H]([C@H](OC(=O)c3ccccc3)[C@]3(O)C[C@H](O)C(C)=C1C3(C)C)[C@]1(OC(C)=O)CO[C@@H]1C[C@@H]2O | 91.6
C=CCc1cc(OC)c2c(c1OC)OCO2 | 98.9
C[N+]1(C)CCc2cc3c(cc2[C@H]1[C@@H]1OC(=O)c2c1ccc1c2OCO1)OCO3 | 104
COc1cc2c(cc1OC)[C@@H]1C(=O)c3ccc4c(c3O[C@@H]1CO2)CC(C(C)C)O4 (some centres undefined) | 77.8
COc1ccc2c(c1OC)C(=O)O[C@H]2[C@H]1c2cc3c(cc2CCN1C)OCO3 | 93.9
CC[C@@H](CO)NC(=O)[C@@H]1C=C2c3cccc4[nH]cc(c34)C[C@H]2N(C)C1 | 98
CCCCOC(=O)c1ccccc1C(=O)OCCCC | 103
O=C(O)c1nn(Cc2ccc(Cl)cc2Cl)c2ccccc12 [Lonidamine] | 86.9
C[N+]12CC[C@@]34c5ccccc5N5C(=O)C[C@@H]6OCC=C(C1)[C@H](C[C@@H]32)[C@@H]6[C@H]54 (some centres undefined) | 102
O=C(NC(=O)c1c(F)cccc1F)Nc1ccc(Cl)cc1 | 118
C[C@@H]1C[C@@H]([C@H](O)CC2CC(=O)NC(=O)C2)C(=O)[C@@H](C)C1 | 18.4
CC(NC(C)(C)C)C(=O)c1cccc(Cl)c1 (centres undefined) | 130
O=C(O)CCCO | 103
C=CCSSCC=C | 91.1
CC(=O)[C@H]1CC[C@H]2[C@@H]3CC[C@H]4C[C@H](O)CC[C@]4(C)[C@H]3CC[C@]12C | 87.7
NCC(CC(=O)O)c1ccc(Cl)cc1 (centres undefined) | 98.1
CC(C)[C@]12O[C@H]1[C@@H]1O[C@]13[C@]1(O[C@H]1C[C@H]1C4=C(CC[C@@]13C)C(=O)OC4)[C@@H]2O [Triptolide] | 2.21
CC(=O)O[C@H]1[C@H]2[C@@H](OC(=O)Cc3ccccc3)[C@@H](C)C[C@]2(OC(C)=O)C(=O)/C(C)=C/[C@@H]2[C@H](CC[C@@]13CO3)C2(C)C | 96.8
NC(=O)c1cc([N+](=O)[O-])cc([N+](=O)[O-])c1 | 95
COc1ccc2c(c1O)-c1c(OC)c(OC)cc3c1[C@H](C2)N(C)CC3 | 96.4
O=C1CC[C@@]2(O)[C@H]3Cc4ccc(O)c5c4[C@@]2(CCN3CC2CC2)[C@H]1O5 | 109
CN[C@@H]1[C@@H](O)[C@@H](O[C@@H]2[C@@H](O)[C@H](O[C@H]3O[C@H](CN)CC[C@H]3N)[C@@H](N)C[C@H]2N)OC[C@]1(C)O.CN[C@@H]1[C@@H](O)[C@@H](O[C@@H]2[C@@H](O)[C@H](O[C@H]3O[C@H]([C@@H](C)N)CC[C@H]3N)[C@@H](N)C[C@H]2N)OC[C@]1(C)O.CN[C@@H]1[C@@H](O)[C@@H](O[C@@H]2[C@@H](O)[C@H](O[C@H]3O[C@H]([C@@H](C)NC)CC[C@H]3N)[C@@H](N)C[C@H]2N)OC[C@]1(C)O | 101
CN1C[C@H](C(=O)N[C@]2(C)O[C@@]3(O)[C@@H]4CCCN4C(=O)[C@H](Cc4ccccc4)N3C2=O)C=C2c3cccc4[nH]cc(c34)C[C@H]21 | 48.2

Compound | cell viability [%]
CNc1ccccc1C(=O)O | 104
CCC(C)C(=O)O[C@@H]1C[C@@]2(C)[C@H](c3ccoc3)OC(=O)CC23OC2(C)O[C@]14[C@]1(C)[C@@H](CC(=O)OC)C5(C)CC1(O)[C@](O)(C5OC(=O)C1(C)OC1C)[C@@H](OC(C)=O)[C@]34O2 (some centres undefined) | 95.6
COC1=C[C@@H]2[C@@H]3Cc4ccc(OC)c(O)c4[C@]2(CCN3C)CC1=O | 81.5
CCOC(=O)C1C(C=C(C)C)C1(C)C (centres undefined) | 104
C/C(=C\c1csc(C)n1)[C@@H]1C[C@@H]2O[C@@H]2CCC[C@H](C)[C@H](O)[C@@H](C)C(=O)C(C)(C)[C@@H](O)CC(=O)O1 [Epothilone A] | 18.5
O=C1C=CC(=O)c2ccccc21 | 89.5
CN[C@@H](C)[C@@H](O)c1ccccc1 | 105
CN1[C@@H]2C[C@@H](OC(=O)[C@H](CO)c3ccccc3)C[C@H]1[C@@H]1O[C@@H]12 | 103
C[C@@H]1O[C@@H](O[C@H]2CC[C@]3(C=O)[C@H]4CC[C@]5(C)[C@@H](C6=CC(=O)OC6)CC[C@]5(O)[C@@H]4CC[C@]3(O)C2)[C@H](O)[C@H](O)[C@H]1O | 1.83
CC1(C)C2CC(=O)[C@]3(C)C(CC[C@@]4(C)[C@H](c5ccoc5)OC(=O)C5OC543)[C@@]2(C)[C@@H](O)C[C@H]1O (some centres undefined) | 88.5
C[C@]12CCC(=O)C=C1C=C[C@@H]1[C@@H]2CC[C@@]2(C)[C@H]1CC[C@@]2(O)CCC(=O)O | 111
CO[C@H]1[C@H](O)[C@H](O[C@H]2CC[C@@]3(C=O)[C@H](CC[C@@H]4[C@@H]3CC[C@]3(C)[C@@H](C5=CC(=O)OC5)CC[C@]43O)C2)O[C@@H](C)[C@@H]1O | 1.75
CC(=O)O[C@@H]1[C@H]2CC[C@H]3[C@@](C)(O)[C@@H]4C[C@H](O)C(C)(C)[C@@]4(O)[C@H](O)C[C@@]13C[C@@]2(C)O | 100
CC[C@@H](C(=O)[C@@H](C)[C@@H](O)[C@H](C)[C@@H]1O[C@@H]([C@@H](CC)C(=O)O)CC[C@@H]1C)[C@H]1O[C@]2(C=C[C@@H](O)[C@]3(CC[C@@](C)([C@H]4CC[C@](O)(CC)[C@H](C)O4)O3)O2)[C@H](C)C[C@@H]1C | 20.9
COP(=O)(OC)OC=C(Cl)Cl | 99.5
S=C=NCc1ccccc1 | 95.3
COP(=O)(OC)C(O)C(Cl)(Cl)Cl (centres undefined) | 86.7
CNC1CC(N)C(O)C(OC2OC(CO)C(O)C3OC4(OC(C(N)CO)C(O)C(O)C4O)OC23)C1O (centres undefined) | 103
CCCC(C)C1(CC)C(=O)NC(=O)NC1=O (centres undefined) | 92.6
C=CCc1ccc2c(c1)OCO2 | 97.9
C[C@@H]1C(=O)O[C@H]2[C@H]1CC[C@@]1(C)C=CC(=O)[C@@]3(C)O[C@@]213 [EPOXY (4,5alpha)-4,5-DIHYDROSANTONIN] | 95.7
Cn1cc(C2=C(c3cn(C4CCN(Cc5ccccn5)CC4)c4ccccc34)C(=O)NC2=O)c2ccccc21 | 111
C[C@]12CCC(=O)C[C@@H]1CC[C@@H]1[C@@H]2CC[C@]2(C)C(=O)CC[C@@H]12 [5alpha-ANDROSTAN-3,17-DIONE] | 101
CC(=O)O[C@H]1C[C@@H]2CC[C@@H]3[C@H](CC[C@@]4(C)[C@H]3C[C@H]([N+]3(C)CCCCC3)[C@@H]4OC(C)=O)[C@@]2(C)C[C@@H]1[N+]1(C)CCCCC1 | 88.6

Two neighbouring records already listed, for reference:
Compound | cell viability [%]
O=C1C=CC(=O)c2ccccc21 | 89.5
CN[C@@H](C)[C@@H](O)c1ccccc1 | 105

2 entries picked at random from those above:
Compound | cell viability [%]
CC1(C)C2CC(=O)[C@]3(C)C(CC[C@@]4(C)[C@H](c5ccoc5)OC(=O)C5OC543)[C@@]2(C)[C@@H](O)C[C@H]1O (some centres undefined) | 88.5
CCC(C)C(=O)O[C@@H]1C[C@@]2(C)[C@H](c3ccoc3)OC(=O)CC23OC2(C)O[C@]14[C@]1(C)[C@@H](CC(=O)OC)C5(C)CC1(O)[C@](O)(C5OC(=O)C1(C)OC1C)[C@@H](OC(C)=O)[C@]34O2 (some centres undefined) | 95.6
